The values that follow are results of earlier work, collected in paper PMC11792066, “Development of benzofuran-derived sulfamates as dual aromatase-steroid sulfatase inhibitors (DASIs): design, synthesis and biological evaluation” (RSC Medicinal Chemistry, 2025).

For the data set, the target named is aromatase (AROM). On the set-up: method as in PMID 20148564. The conditions noted are these: cited from earlier work.

For the compound `CC(C)(C#N)c1cc(Cn2cncn2)cc(C(C)(C)C#N)c1` [Anastrozole], the IC50 was 1.5 nM.
